Assay results reported in publication PMC3121800.
These are yes or no findings as the source states them, for the method shown. Binding seen in cells or lysates may run through a third protein. Some results given as binding are weak or reduced against the parent protein; the word gives no strength. Where a sequence is shown, tags or fusion partners need not be part of it.

Sequences of proteins named here, by UniProt entry; tags and fusion partners are left off.
UniProt B0B9M5: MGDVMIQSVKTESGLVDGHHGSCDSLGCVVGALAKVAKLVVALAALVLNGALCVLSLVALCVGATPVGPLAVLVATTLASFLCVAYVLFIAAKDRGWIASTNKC
UniProt B0B9M3: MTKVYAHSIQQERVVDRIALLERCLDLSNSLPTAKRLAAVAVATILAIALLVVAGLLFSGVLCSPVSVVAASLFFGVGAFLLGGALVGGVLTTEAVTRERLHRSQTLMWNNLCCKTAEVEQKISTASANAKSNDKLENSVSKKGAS
UniProt B0B9M4: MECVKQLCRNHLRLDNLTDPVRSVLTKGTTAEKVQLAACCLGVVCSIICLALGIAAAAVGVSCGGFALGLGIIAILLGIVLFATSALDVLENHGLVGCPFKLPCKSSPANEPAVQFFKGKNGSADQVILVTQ

B1: CERT-GFP fusion protein containing full-length CERT (protein, UniProt Q9Y5P4-2 1-598)
chain: MSDNQSWNSSGSEEDPETESGPPVERCGVLSKWTNYIHGWQDRWVVLKNNALSYYKSEDETEYGCRGSICLSKAVITPHDFDECRFDISVNDSVWYLRAQDPDHRQQWIDAIEQHKTESGYGSESSLRRHGSMVSLVSGASGYSATSTSSFKKGHSLREKLAEMETFRDILCRQVDTLQKYFDACADAVSKDELQRDKVVEDDEDDFPTTRSDGDFLHSTNGNKEKLFPHVTPKGINGIDFKGEAITFKATTAGILATLSHCIELMVKREDSWQKRLDKETEKKRRTEEAYKNAMTELKKKSHFGGPDYEEGPNSLINEEEFFDAVEAALDRQDKIEEQSQSEKVRLHWPTSLPSGDAFSSVGTHRFVQKVEEMVQNHMTYSLQDVGGDANWQLVVEEGEMKVYRREVEENGIVLDPLKATHAVKGVTGHEVCNYFWNVDVRNDWETTIENFHVVETLADNAIIIYQTHKRVWPASQRDVLYLSVIRKIPALTENDPETWIVCNFSVDHDSAPLNNRCVRAKINVAMICQTLVSPPEGNQEISRDNILCKITYVANVNPGGWAPASVLRAVAKREYPKFLKRFTSYVQEKTAGKPILF
B2: PX-YFP (phosphoinositide binding domain of p40phox) (domain or fragment, UniProt Q15080 19-140)
chain: DVAISANIADIEEKRGFTSHFVFVIEVKTKGGSKYLIYRRYRQFHALQSKLEERFGPDSKSSALACTLPTLPAKVYVGVKQEIAEMRIPALNAYMKSLLSLPVWVLMDEDVRIFFYQSPYDS

Tests used:
Assay in all cases: co-IP; HEK293 co-transfected 48 h; lysis in 20 mM Tris pH 7.5, 150 mM NaCl, 2 mM EDTA, 1% Triton X-100; anti-FLAG M2 agarose beads 2 h, 4°C; eluted with 3XFLAG peptide; immunoblot with anti-GFP and anti-FLAG
[1] = molecular target: 3xFLAG-IncF (C. trachomatis (L2/434/Bu)) (UniProt B0B9M5)
[2] = molecular target: 3xFLAG-IncD (C. trachomatis (L2/434/Bu)) (UniProt B0B9M3)
[3] = molecular target: 3xFLAG-IncE (C. trachomatis (L2/434/Bu)) (UniProt B0B9M4)

Binder | binding [1] | binding [2] | binding [3]
B1 | no binding | binds | no binding
B2 |  | no binding | 
